# Test results published in article PMC4829233, “Identification of Novel Chemical Scaffolds Inhibiting Trypanothione Synthetase from Pathogenic Trypanosomatids” (PLoS Neglected Tropical Diseases, 2016).
# Amino acid sequences for entries named in this document (tags omitted). Residues count along the entry.
# UniProt A4I2Z3, 1-652: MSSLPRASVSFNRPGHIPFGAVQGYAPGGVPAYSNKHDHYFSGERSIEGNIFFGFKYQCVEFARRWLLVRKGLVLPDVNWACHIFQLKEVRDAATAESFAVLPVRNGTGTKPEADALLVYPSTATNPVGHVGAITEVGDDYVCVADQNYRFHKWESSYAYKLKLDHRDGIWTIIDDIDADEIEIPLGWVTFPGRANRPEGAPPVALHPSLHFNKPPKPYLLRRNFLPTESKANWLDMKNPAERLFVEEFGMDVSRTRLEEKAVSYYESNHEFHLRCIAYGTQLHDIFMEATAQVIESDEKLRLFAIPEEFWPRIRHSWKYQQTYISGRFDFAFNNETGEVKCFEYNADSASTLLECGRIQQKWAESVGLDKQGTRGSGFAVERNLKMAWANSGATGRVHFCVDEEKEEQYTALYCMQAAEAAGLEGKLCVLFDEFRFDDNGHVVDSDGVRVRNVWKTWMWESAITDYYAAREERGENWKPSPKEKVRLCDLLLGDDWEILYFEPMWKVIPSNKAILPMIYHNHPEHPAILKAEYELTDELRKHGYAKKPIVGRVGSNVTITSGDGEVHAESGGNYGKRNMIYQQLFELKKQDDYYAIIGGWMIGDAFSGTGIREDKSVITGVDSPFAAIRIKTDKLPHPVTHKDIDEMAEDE
# UniProt Q8IEX1, 1-627: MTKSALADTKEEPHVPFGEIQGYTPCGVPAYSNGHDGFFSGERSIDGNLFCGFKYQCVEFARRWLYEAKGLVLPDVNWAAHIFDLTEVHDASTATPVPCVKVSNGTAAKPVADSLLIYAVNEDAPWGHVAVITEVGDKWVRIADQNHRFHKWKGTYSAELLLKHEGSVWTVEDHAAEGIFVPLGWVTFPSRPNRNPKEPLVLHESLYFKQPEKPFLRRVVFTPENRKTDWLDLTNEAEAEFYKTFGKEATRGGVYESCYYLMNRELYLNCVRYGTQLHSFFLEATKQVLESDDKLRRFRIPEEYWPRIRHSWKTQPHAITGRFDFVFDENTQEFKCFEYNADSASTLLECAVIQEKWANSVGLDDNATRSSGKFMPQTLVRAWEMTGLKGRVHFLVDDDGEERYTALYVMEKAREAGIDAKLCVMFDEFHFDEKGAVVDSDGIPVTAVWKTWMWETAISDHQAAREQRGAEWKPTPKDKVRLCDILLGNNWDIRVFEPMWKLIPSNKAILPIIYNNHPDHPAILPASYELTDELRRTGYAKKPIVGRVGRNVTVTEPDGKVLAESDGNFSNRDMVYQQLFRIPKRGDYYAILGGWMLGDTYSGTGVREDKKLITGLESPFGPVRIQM
# Assays:
# [1] = molecular target: LiTryS (Leishmania infantum trypanothione synthetase) (Leishmania infantum, UniProt A4I2Z3); test: biochemical; conditions: read-out: reduction of LiTryS activity
# [2] = molecular target: TbTryS (Trypanosoma brucei trypanothione synthetase) (Trypanosoma brucei brucei, UniProt Q8IEX1); test: biochemical; conditions: read-out: reduction of TbTryS activity
# TbTryS = conditions: subsaturating 25 μM SP; ref [18]; cited from earlier work
compound,measurement,setting,value
"CN1CCN(CCCN2c3ccccc3Sc3ccc(Cl)cc32)CC1 [prochlorperazine, reference compound]",inhibition at 300 µM,[1],0%
same,inhibition at 300 µM,[2],58%
same,IC50,TbTryS,19 µM
